PubChem BioAssay AID1259254 – NCATS, 2017
This is one part, drawn at random, of about 59,000 deposited reagents. In the full data, about 1,550 (2.6%) were called active. 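G2 share is only a proxy for re-replication; each gene was hit by three separate siRNAs, and active genes were retested.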 The numbers tell different reagents against one gene apart. Further read-outs or replicates are left out here. The record does not give: the amount of reagent.

Purpose: 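Finding genes that stop cells copying their DNA twice in one cycle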 (primary screen)
Cell system: human HCT116 colorectal cancer cells
Reagents: single siRNA against human genes
Duration: 3 days
Read-out: 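Nuclei stained with Hoechst and imaged; cell-cycle phase assigned by DNA content; G2 share scaled per plate, non-targeting siRNA 0%, GMNN siRNA 100%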
Direction: G2 robust z-score and G2 cells, % of GMNN control: higher = more G2 cells, more excess DNA replication
Active means: 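An siRNA counts as active if its G2 robust z-score lies at least 5 MADs above the screen median; here such calls match roughly 38% of GMNN control or more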

The first 3 records, to show the layout:
HFE #1
- G2 robust z-score: 5.03
- G2 cells, % of GMNN control: 38.3
- activity call: active

HFE #2
- G2 robust z-score: -0.261
- G2 cells, % of GMNN control: 1.13
- activity call: inactive

HFE #3
- G2 robust z-score: 3.92
- G2 cells, % of GMNN control: 30.5
- activity call: inactive

The list itself, from the first entry:
HFE #1
- G2 robust z-score: 5.03
- G2 cells, % of GMNN control: 38.3
- activity call: active

HFE #2
- G2 robust z-score: -0.261
- G2 cells, % of GMNN control: 1.13
- activity call: inactive

HFE #3
- G2 robust z-score: 3.92
- G2 cells, % of GMNN control: 30.5
- activity call: inactive

ATP5MG #1
- G2 robust z-score: 0.0371
- G2 cells, % of GMNN control: 3.23
- activity call: inactive

ATP5MG #2
- G2 robust z-score: 4.81
- G2 cells, % of GMNN control: 36.8
- activity call: inactive

ATP5MG #3
- G2 robust z-score: -0.417
- G2 cells, % of GMNN control: 0.0362
- activity call: inactive

ACTR1A #1
- G2 robust z-score: 3.07
- G2 cells, % of GMNN control: 24.5
- activity call: inactive

ACTR1A #2
- G2 robust z-score: -0.782
- G2 cells, % of GMNN control: -2.54
- activity call: inactive

ACTR1A #3
- G2 robust z-score: -0.719
- G2 cells, % of GMNN control: -2.09
- activity call: inactive

KIAA2012 #1
- G2 robust z-score: -0.49
- G2 cells, % of GMNN control: -0.48
- activity call: inactive

KIAA2012 #2
- G2 robust z-score: 1.91
- G2 cells, % of GMNN control: 16.4
- activity call: inactive

KIAA2012 #3
- G2 robust z-score: 0.289
- G2 cells, % of GMNN control: 5
- activity call: inactive

KIAA2012 #4
- G2 robust z-score: 1.51
- G2 cells, % of GMNN control: 13.6
- activity call: inactive

KIAA2012 #5
- G2 robust z-score: -0.467
- G2 cells, % of GMNN control: -0.318
- activity call: inactive

KIAA2012 #6
- G2 robust z-score: 0.974
- G2 cells, % of GMNN control: 9.82
- activity call: inactive

FABP5P10 #1
- G2 robust z-score: 0.469
- G2 cells, % of GMNN control: 6.27
- activity call: inactive

FABP5P10 #2
- G2 robust z-score: 1.44
- G2 cells, % of GMNN control: 13.1
- activity call: inactive

FABP5P10 #3
- G2 robust z-score: 0.965
- G2 cells, % of GMNN control: 9.76
- activity call: inactive

CIB3 #1
- G2 robust z-score: -1.32
- G2 cells, % of GMNN control: -6.31
- activity call: inactive

CIB3 #2
- G2 robust z-score: -0.0432
- G2 cells, % of GMNN control: 2.66
- activity call: inactive

CIB3 #3
- G2 robust z-score: 1.06
- G2 cells, % of GMNN control: 10.4
- activity call: inactive

MPV17 #1
- G2 robust z-score: -0.0298
- G2 cells, % of GMNN control: 2.76
- activity call: inactive

MPV17 #2
- G2 robust z-score: -0.611
- G2 cells, % of GMNN control: -1.33
- activity call: inactive

MPV17 #3
- G2 robust z-score: 0.93
- G2 cells, % of GMNN control: 9.51
- activity call: inactive
